Measurements reported in patent publication US20160137728A1.
No constants are given. Whether binding was seen depends on the method and setting. Some binding calls cover weakened binding; strength is not graded here.

Protein sequences, listed by entry. Tags and fused reporters are not part of them. Lines headed by an entry give the natural chain unless they say otherwise; changes in a name come on top.
UniProt P05019: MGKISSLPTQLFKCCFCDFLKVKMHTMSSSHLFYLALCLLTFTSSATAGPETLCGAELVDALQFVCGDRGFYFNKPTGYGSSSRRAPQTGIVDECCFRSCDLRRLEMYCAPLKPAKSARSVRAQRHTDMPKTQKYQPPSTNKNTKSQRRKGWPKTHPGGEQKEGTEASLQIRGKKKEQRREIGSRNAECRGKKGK

Tests used:
[1] = biological target: human insulin-like growth factor-1 (mature, recombinant native IGF-1, Peprotech Cat.#100-11) (human) (UniProt P05019); assay: ELISA, clone culture supernatant
SEQ ID NO 46 (human) = assay: CelluSpots peptide array, chemiluminescence
SEQ ID NO 47 (human) = assay: CelluSpots peptide array, chemiluminescence
SEQ ID NO 48 (human) = assay: CelluSpots peptide array, chemiluminescence
SEQ ID NO 49 (human) = assay: CelluSpots peptide array, chemiluminescence
SEQ ID NO 43 (human) = assay: CelluSpots peptide array, chemiluminescence
SEQ ID NO 50 (human) = assay: CelluSpots peptide array, chemiluminescence
SEQ ID NO 44 (human) = assay: CelluSpots peptide array, chemiluminescence
SEQ ID NO 45 (human) = assay: CelluSpots peptide array, chemiluminescence

- binding [1]: binds
- binding (SEQ ID NO 46 (human)): binds
- binding (SEQ ID NO 47 (human)): binds
- binding (SEQ ID NO 48 (human)): binds
- binding (SEQ ID NO 49 (human)): binds
- binding (SEQ ID NO 43 (human)): binds
- binding (SEQ ID NO 50 (human)): binds
- binding (SEQ ID NO 44 (human)): binds
- binding (SEQ ID NO 45 (human)): binds
B1: MAb<h-IGF-1>M-11.09.15 (antibody, V domains shown)
VH: QVQLQQSGAELVRPGSSVKISCKASGYAFSNLWMNWVKQRPGQGLEWIGQIYPGDGDTNYYGDFKGKATLTADSSSSTAYMQLSRLTSEDSAVYFCARIGYYGMDYWGQGTSVTVSS
VL: DVVLTQTPLSLPVNIGDEASISCKSTKSLLSSDGLTYLDWYLQKPGQSPQVLIYLVSNRFSGVPDRFSGSGSGTDFTLKISRVEAEDLGVYYCFQSNYLPTFGAGTKLELK
